Assay [1] addresses Spt7 with a C-terminal TAP tag (S. cerevisiae) (UniProt P35177). Put plainly: affinity purification (TAP tag) with Western blot; SAGA-Ada2ΔSWIRM purified by Spt7-TAP (strain CW20), 81 nM and 7× (568 nM) on SDS-PAGE, anti-GCN5 blot. (In general: In western blotting, separated proteins are transferred to a membrane and probed.)
Assay [2] shares this target. Put plainly: affinity purification (TAP tag) with Western blot; WT SAGA purified by Spt7-TAP (strain CW14), 81 nM on SDS-PAGE, anti-GCN5 blot.
The target of assay [3] is T1, Ada3 with a hexahistidine tag (recombinant) (Saccharomyces cerevisiae) (UniProt P32494).
T1 sequence: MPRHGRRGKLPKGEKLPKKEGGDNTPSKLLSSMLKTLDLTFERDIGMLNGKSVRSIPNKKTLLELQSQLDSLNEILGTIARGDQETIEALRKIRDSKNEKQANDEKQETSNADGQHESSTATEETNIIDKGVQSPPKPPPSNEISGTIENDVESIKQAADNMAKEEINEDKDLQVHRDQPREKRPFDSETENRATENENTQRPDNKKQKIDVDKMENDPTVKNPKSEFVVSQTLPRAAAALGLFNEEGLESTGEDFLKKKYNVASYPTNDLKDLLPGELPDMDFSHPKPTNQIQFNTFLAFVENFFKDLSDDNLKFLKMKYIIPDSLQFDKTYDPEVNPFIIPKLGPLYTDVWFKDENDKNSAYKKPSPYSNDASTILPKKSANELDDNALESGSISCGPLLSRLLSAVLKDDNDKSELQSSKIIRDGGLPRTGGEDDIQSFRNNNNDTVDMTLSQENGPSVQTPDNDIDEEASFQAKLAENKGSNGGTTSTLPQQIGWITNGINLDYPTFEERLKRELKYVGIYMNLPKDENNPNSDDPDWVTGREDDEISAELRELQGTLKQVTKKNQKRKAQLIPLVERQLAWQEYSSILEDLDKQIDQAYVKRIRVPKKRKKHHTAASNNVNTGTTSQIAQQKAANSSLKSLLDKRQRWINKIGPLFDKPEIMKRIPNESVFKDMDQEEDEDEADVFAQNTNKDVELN
Put plainly: co-purification (Ni-NTA, anion exchange); Gcn5, Ada2 (WT or ΔSWIRM) and His-tagged Ada3 co-expressed in E. coli; batch Ni-NTA by the hexahistidine tag on Ada3, then Source Q.

The chains behind the UniProt entries cited, without tags or fusion partners.
UniProt P35177: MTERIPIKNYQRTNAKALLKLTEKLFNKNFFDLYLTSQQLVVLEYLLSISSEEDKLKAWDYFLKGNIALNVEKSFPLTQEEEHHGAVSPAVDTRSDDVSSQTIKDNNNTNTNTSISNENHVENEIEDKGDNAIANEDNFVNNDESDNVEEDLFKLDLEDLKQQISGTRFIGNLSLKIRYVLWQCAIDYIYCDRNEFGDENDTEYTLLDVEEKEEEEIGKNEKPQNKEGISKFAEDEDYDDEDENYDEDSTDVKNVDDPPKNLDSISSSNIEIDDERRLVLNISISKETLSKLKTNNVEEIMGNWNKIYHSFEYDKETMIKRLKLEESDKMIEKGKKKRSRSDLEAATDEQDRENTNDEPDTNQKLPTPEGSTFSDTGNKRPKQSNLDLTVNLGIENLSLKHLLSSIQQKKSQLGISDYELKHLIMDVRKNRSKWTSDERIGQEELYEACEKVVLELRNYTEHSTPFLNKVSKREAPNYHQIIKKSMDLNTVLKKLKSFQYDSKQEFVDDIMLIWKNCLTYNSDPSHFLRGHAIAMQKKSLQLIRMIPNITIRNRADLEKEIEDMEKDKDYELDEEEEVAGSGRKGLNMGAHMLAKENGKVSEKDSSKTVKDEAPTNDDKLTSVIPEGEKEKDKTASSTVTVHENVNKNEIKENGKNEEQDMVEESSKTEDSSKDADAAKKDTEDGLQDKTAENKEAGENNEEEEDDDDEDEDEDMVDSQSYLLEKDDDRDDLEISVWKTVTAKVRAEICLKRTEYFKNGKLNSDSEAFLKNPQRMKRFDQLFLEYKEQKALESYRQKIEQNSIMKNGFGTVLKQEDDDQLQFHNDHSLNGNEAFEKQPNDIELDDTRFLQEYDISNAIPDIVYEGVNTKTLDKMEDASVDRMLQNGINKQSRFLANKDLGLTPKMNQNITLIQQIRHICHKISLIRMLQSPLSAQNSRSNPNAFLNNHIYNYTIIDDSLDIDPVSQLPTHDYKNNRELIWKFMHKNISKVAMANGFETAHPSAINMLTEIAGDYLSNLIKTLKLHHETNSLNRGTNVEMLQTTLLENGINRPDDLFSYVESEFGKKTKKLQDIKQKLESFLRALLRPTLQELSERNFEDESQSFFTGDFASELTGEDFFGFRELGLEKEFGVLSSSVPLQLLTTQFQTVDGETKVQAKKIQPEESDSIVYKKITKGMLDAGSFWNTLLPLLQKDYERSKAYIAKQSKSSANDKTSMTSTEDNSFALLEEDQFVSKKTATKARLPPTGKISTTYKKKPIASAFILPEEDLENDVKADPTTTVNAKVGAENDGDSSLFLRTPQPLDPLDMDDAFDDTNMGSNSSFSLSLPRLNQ
UniProt Q03330: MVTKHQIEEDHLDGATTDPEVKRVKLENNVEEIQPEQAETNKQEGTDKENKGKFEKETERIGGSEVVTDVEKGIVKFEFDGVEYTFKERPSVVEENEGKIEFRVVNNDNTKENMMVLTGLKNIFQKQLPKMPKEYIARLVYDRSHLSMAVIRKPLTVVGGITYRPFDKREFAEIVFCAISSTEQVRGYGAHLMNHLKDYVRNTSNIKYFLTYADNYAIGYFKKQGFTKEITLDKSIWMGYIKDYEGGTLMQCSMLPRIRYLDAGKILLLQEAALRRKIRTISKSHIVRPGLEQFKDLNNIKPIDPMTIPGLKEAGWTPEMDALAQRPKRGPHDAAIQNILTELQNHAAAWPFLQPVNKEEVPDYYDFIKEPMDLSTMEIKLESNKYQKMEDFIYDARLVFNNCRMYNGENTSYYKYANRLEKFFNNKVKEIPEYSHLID

No constants are given. Whether binding was seen depends on the method and setting. Some results given as binding are weak or reduced against the parent protein; the word gives no strength. For part of these data: Sequences can lack the tags named with a protein.

As for “Gcn5 (endogenous) (from UniProt Q03330 1-439) (enzyme)”, the binding entry is on record as “binds weakly” in assay [1] and “binds” in assay [2].

As for “Gcn5 (recombinant) (from UniProt Q03330 1-439) (enzyme)”, the binding result in assay [3] was “binds”.
